Measurements reported in patent US20020045591A1, “Methods and therapeutic compositions for treating cancer” (priority 1998, published 2002).
No constants are given. Whether binding was seen depends on the method and setting. In cells and extracts the contact can be indirect. Some binding calls cover weakened binding; strength is not graded here.

By UniProt entry, the sequences of proteins in these tests, tags left out. Where a name states a change or a piece, a line headed by the entry shows the natural chain unless it says otherwise. Residues count along the entry.
UniProt Q02248, residues 2-781: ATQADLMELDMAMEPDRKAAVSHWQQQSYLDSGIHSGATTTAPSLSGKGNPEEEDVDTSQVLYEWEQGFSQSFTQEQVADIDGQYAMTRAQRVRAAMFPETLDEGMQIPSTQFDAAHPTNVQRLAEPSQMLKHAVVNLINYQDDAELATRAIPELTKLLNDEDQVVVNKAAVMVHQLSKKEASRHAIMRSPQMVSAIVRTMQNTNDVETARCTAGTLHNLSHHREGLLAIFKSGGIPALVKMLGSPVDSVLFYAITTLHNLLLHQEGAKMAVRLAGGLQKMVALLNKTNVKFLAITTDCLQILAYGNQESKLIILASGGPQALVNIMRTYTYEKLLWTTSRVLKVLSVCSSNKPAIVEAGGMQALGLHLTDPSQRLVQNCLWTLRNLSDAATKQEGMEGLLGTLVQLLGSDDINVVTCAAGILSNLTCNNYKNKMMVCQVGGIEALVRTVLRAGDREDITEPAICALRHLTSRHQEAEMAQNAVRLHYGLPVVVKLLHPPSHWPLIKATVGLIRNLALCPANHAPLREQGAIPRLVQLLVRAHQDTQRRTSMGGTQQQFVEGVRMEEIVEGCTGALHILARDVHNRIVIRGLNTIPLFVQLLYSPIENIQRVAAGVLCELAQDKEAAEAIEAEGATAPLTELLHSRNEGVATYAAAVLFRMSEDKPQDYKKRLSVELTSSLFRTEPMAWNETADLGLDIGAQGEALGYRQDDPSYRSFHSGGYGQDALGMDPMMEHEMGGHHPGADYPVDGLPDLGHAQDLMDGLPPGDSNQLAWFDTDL
UniProt B2KI42: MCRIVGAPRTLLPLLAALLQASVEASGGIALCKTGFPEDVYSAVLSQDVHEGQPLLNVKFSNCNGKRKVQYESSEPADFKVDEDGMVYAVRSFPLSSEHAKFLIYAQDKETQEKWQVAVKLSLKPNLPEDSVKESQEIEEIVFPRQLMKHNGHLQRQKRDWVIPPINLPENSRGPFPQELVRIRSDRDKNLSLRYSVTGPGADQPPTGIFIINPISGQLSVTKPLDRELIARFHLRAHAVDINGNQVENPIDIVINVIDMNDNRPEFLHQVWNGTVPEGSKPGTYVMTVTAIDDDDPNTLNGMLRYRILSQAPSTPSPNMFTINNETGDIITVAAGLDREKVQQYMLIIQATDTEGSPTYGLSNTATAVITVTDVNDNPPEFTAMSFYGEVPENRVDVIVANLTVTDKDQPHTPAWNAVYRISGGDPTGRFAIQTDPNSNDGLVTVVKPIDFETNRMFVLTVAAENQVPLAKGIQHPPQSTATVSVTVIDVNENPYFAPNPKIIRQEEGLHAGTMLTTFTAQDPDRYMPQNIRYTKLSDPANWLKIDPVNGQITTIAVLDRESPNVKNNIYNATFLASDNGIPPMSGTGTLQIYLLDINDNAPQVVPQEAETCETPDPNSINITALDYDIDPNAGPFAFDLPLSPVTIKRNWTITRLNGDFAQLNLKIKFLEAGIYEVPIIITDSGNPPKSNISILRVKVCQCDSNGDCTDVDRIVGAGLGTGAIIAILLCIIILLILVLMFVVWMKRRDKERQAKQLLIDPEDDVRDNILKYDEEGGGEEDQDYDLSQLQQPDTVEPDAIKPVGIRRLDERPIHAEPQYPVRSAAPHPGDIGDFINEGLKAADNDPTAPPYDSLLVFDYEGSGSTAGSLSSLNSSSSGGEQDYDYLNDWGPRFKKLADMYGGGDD

Tests used:
[1] = target: Mouse β-catenin (transfected cDNA) (mouse) (UniProt Q02248); experiment: competition co-immunoprecipitation: anti HA IP of HA-LEF-1, immunoblot anti β-catenin, CHO cells; competitor HA-LEF-1
[2] = target: Mouse β-catenin (transfected cDNA) (mouse) (UniProt Q02248); experiment: competition co-immunoprecipitation: anti HA IP of HA-LEF-1, immunoblot anti β-catenin, CHO cells with increasing N-cadherin tail cDNA; competitor HA-LEF-1

binding [1]: binds | binding [2]: binds
Substance: N-cadherin cytoplasmic tail tagged with a Flag epitope (from UniProt B2KI42 746-906)
